Measured values from publication PMC12481249.

System: MCF-7 Br Ca cell line
Experiment: MTT cytotoxicity (antiproliferative) assay
Conditions: Homo sapiens, MCF7, read-out: IC50 MCF-7, MTT, MCF-7 Br Ca cell line, mean ± SD (n = 3)

Q: Which IC50 does the source give for CC/C(=C(\c1ccccc1)c1ccc(OCCN(C)C)cc1)c1ccccc1 [Tam, Tamoxifen, reference compound] here?
A: The IC50 was 10.5 ± 0.23 µM.
